Data source: PubChem BioAssay AID1259254 (NCATS, 2017)

Aim: 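Gene knock-downs that lead to re-replication, shown by excess G2 DNA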 (primary screen)
Cells: human HCT116 colorectal cancer cells
Reagents: single siRNA against human genes
Duration: 3 days
Measured: 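Nuclei stained with Hoechst and imaged; cell-cycle phase assigned by DNA content; G2 share scaled per plate, non-targeting siRNA 0%, GMNN siRNA 100%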
Scale: G2 robust z-score: higher = more G2 cells, more excess DNA replication
Hit rule: 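An siRNA counts as active if its G2 robust z-score lies at least 5 MADs above the screen median; here such calls match roughly 38% of GMNN control or more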
The whole screen tested about 59,000 reagents; below is a part drawn at random. Over the whole deposit, about 1,550 (2.6%) were called active. 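G2 share is only a proxy for re-replication; each gene was hit by three separate siRNAs, and active genes were retested.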 Entries without a mark were called inactive. Reagents against one gene are numbered here. Not all columns of the deposit are shown. The record does not give: the amount of reagent.

Target gene | reagent no. | G2 robust z-score
D2HGDH | 1 | -0.151
D2HGDH | 2 | 0.735
D2HGDH | 3 | 3.21
HNRNPUL2 | 1 | 1.95
HNRNPUL2 | 2 | 2.63
HNRNPUL2 | 3 | 0.71
KCNA2 | 1 | 1.11
KCNA2 | 2 | -0.958
KCNA2 | 3 | -0.628
SRI | 1 | 0.524
SRI | 2 | -1.12
SRI | 3 | -0.416
BCCIP | 1 | -1.13
BCCIP | 2 | -0.0758
BCCIP | 3 | 0.299
ETFDH | 1 | 0.21
ETFDH | 2 | -1.02
ETFDH | 3 | -0.323
KCNC1 | 1 | -0.773
KCNC1 | 2 | -0.471
KCNC1 | 3 | 1.92
KLF10 | 1 | -0.0449
KLF10 | 2 | 0.323
KLF10 | 3 | 0.162
BMERB1 | 1 | -0.107
BMERB1 | 2 | -0.257
BMERB1 | 3 | 1.46
BIRC5 | 1 | 9.72 (active)
BIRC5 | 2 | 12.5 (active)
BIRC5 | 3 | 14.7 (active)

The list goes on (3 carried over from the part before).
Target gene | reagent no. | G2 robust z-score
BIRC5 | 1 | 9.72 (active)
BIRC5 | 2 | 12.5 (active)
BIRC5 | 3 | 14.7 (active)
GOLIM4 | 1 | -0.727
GOLIM4 | 2 | -1.01
GOLIM4 | 3 | -0.385
RGS1 | 1 | 0.336
RGS1 | 2 | 0.253
RGS1 | 3 | 0.212
PAFAH2 | 1 | -0.282
PAFAH2 | 2 | -0.777
PAFAH2 | 3 | 0.282
TSC22D2 | 1 | -0.198
TSC22D2 | 2 | 0.571
TSC22D2 | 3 | 0.168
PPIAP74 | 1 | -1.02
PPIAP74 | 2 | 0.596
PPIAP74 | 3 | -0.209
OR4E1 | 1 | 0.089
OR4E1 | 2 | 0.382
OR4E1 | 3 | -0.789
